# Literature values in US7825092B2, “Dendroaspis natriuretic peptide for treatment of cancer” (University of South Florida, priority 2006, dated 2010).
# Conditions: healthy humans, endogenous level; cited from earlier work
row,Molecule,circulating concentration [pg/mL]
1,"CC[C@H](C)[C@@H]1NC(=O)[C@H](CCCNC(=N)N)NC(=O)[C@H](CC(=O)O)NC(=O)[C@H](CCSC)NC(=O)[C@H](CCCNC(=N)N)NC(=O)CNC(=O)CNC(=O)[C@H](Cc2ccccc2)NC(=O)[C@@H](NC(=O)[C@H](CO)NC(=O)[C@H](CO)NC(=O)[C@H](CCCNC(=N)N)NC(=O)[C@H](CCCNC(=N)N)NC(=O)[C@H](CC(C)C)NC(=O)[C@@H](N)CO)CSSC[C@@H](C(=O)N[C@@H](CC(N)=O)C(=O)N[C@@H](CO)C(=O)N[C@@H](Cc2ccccc2)C(=O)N[C@@H](CCCNC(=N)N)C(=O)N[C@@H](Cc2ccc(O)cc2)C(=O)O)NC(=O)CNC(=O)[C@H](CC(C)C)NC(=O)CNC(=O)[C@H](CO)NC(=O)[C@H](CCC(N)=O)NC(=O)[C@H](C)NC(=O)CNC1=O [ANP, atrial natriuretic peptide]",63 ± 2
2,kaliuretic peptide,213 ± 42
3,"long acting natriuretic peptide (NPMYNAVSNADLMDFKNLLDHLEEKMPLED; Long-acting natriuretic peptide; UniProt P01160 26-55, looked up, fragment) [LANP, cardiac hormone, first 30 amino acids of the 126 a.a. atrial natriuretic peptide prohormone]",1528 ± 158
4,"vessel dilator (EVSPAQRDGGALGRGPWDSSDRSALLKSKLRALLTAP; Vessel dilator; UniProt P01160 86-122, looked up, fragment) [cardiac hormone, a.a; 31-67 of the 126 a.a. atrial natriuretic peptide prohormone]",1595 ± 157
